Data as given in PubChem BioAssay AID1259308 (NCATS, 2017)

- Screen: 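Candidate targets for better recombinant protein yield in mammalian cells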 (primary screen)
- System: human HEK293 embryonic kidney cells stably expressing firefly luciferase (HEK-CMV-Luc2-Hygro)
- Knock-down reagent: single siRNA against human genes, 0.8 pmol siRNA per well
- Duration: 72 h
- Measured: 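Luciferase light (ONE-Glo) measured on one replicate plate set and viability (CellTiter-Glo) on the other, scaled to a negative control siRNA, with robust z-scores and luciferase per cell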
- Direction: total luciferase, z-score and total luciferase, % of control: higher = more reporter protein produced
- Active means: 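An siRNA counts as active if its total luciferase robust z-score exceeds 3; genes with two or more such siRNAs out of three were retested with fresh siRNAs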
- Calls: active = raised luciferase; inactive = no rise
The whole screen tested about 59,000 reagents; this is a part drawn at random. About 1,510 of all reagents (2.6%) were called active. 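Calls use total luciferase alone and ignore viability, so some active siRNAs may act by altering cell number.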 Not all columns of the deposit are shown. No sequences are given here.

gene knocked down	PubChem SID	total luciferase, z-score	total luciferase, % of control	Outcome
NPM1P39	SID160725398	-0.622	69.5	inactive
NPM1P39	SID160767814	1.8	118	inactive
NPM1P39	SID160767815	0.471	91.2	inactive
EP300	SID160760554	0.276	87.4	inactive
EP300	SID160760565	-0.479	72.4	inactive
EP300	SID160760575	0.101	83.9	inactive
ACRBP	SID160752348	1.12	104	inactive
ACRBP	SID160752349	3.01	142	active
ACRBP	SID160752350	-0.596	70	inactive

The list goes on; the last 2 above are carried over.
gene knocked down	PubChem SID	total luciferase, z-score	total luciferase, % of control	Outcome
ACRBP	SID160752349	3.01	142	active
ACRBP	SID160752350	-0.596	70	inactive
DZIP1L	SID160760722	-0.453	72.9	inactive
DZIP1L	SID160760724	-0.765	66.7	inactive
DZIP1L	SID160760725	-0.424	73.4	inactive
CRPPA	SID160773291	0.158	85	inactive
CRPPA	SID160773292	0.917	100	inactive
CRPPA	SID160773293	0.00946	82.1	inactive
CCDC157	SID160768336	-0.678	68.4	inactive
CCDC157	SID160768337	-0.862	64.7	inactive
CCDC157	SID160768338	0.274	87.3	inactive
TRIM60	SID160760215	-0.337	75.2	inactive
TRIM60	SID160760216	0.23	86.5	inactive
TRIM60	SID160760217	0.0329	82.5	inactive
ITGAM	SID160775986	-1.23	57.5	inactive
ITGAM	SID160775987	-2.71	27.9	inactive
ITGAM	SID160775988	0.204	85.9	inactive
